Measured values from PMC8888459.
No constants are given. Whether binding was seen depends on the method and setting. Some binding calls cover weakened binding; strength is not graded here. For some assays here: Sequences can lack the tags named with a protein.

Amino acid sequences for entries named in this document (tags omitted). A change or cut given only in a name is not applied to a line headed by its entry.
UniProt P25374: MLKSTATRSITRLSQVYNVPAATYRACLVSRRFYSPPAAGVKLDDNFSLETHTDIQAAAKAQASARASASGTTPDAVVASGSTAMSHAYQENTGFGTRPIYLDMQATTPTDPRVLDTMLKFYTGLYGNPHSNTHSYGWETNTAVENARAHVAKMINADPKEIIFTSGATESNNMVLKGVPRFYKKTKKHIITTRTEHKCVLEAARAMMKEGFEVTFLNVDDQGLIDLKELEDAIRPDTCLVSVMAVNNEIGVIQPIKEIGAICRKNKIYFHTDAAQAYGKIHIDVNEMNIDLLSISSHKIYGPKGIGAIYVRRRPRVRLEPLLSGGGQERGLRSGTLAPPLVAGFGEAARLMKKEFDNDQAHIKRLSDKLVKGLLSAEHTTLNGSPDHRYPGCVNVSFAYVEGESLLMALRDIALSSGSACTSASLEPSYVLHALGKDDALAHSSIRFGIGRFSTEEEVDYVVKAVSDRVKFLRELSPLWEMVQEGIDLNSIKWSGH
UniProt Q6Q560: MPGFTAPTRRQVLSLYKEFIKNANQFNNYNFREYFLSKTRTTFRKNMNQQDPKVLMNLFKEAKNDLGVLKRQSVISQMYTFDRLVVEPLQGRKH
UniProt P0A6A8: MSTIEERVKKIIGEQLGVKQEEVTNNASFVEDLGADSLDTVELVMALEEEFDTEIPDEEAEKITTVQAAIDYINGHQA

T1: Yah1-GST fusion protein (S. cerevisiae) (UniProt Q12184)
T1 sequence: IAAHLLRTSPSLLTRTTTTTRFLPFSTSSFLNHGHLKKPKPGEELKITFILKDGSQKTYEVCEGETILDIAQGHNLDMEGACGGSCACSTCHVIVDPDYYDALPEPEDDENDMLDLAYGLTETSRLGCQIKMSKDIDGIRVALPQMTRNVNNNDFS

B1: Yah1 (untagged, holo) (protein, UniProt Q12184 17-172)
chain: T1 sequence
B2: Isu1 of S. cerevisiae (protein, UniProt Q03020 28-165)
chain: SSITKRLYHPKVIEHYTHPRNVGSLDKKLPNVGTGLVGAPACGDVMRLQIKVNDSTGVIEDVKFKTFGCGSAIASSSYMTELVQGMTLDDAAKIKNTEIAKELSLPPVKLHCSMLAEDAIKAAIKDYKSKRNTPTMLS

Columns and labels:
[1] = biological target: T2, NIA complex (Nfs1–Isd11–ACPEc) (S. cerevisiae | E. coli (endogenous in the expression host)) (UniProt P25374+Q6Q560+P0A6A8); assay: BLI; His-tagged Nfs1 of the NIA complex immobilised on a Ni–nitrilotriacetic acid-coated sensor; untagged Yah1 in solution; both purified
[2] = biological target: T2, NIA complex (Nfs1–Isd11–ACPEc) (S. cerevisiae | E. coli (endogenous in the expression host)); assay: pull-down; GST-tagged Yah1 bait (2.5 μM) incubated with NIA (5 μM or increasing) and/or Isu1 (7.5 μM) in buffer PD (40 mM Hepes–KOH pH 7.5, 5% glycerol, 100 mM KCl, 1 mM DTT, 10 mM MgCl2) 15 min at 25 °C; glutathione agarose 1 h at 4 °C; SDS-PAGE, InstantBlue, densitometry corrected for binding to GST; aerobic (Yah1 cluster oxidised); both purified
[3] = biological target: T1, Yah1-GST fusion protein (S. cerevisiae); assay: condition: only aerobic conditions (Yah1 cluster oxidised); Isu1Sc 7.5 μM; pull-down; GST-tagged Yah1 bait (2.5 μM) incubated with NIA (5 μM or increasing) and/or Isu1 (7.5 μM) in buffer PD (40 mM Hepes–KOH pH 7.5, 5% glycerol, 100 mM KCl, 1 mM DTT, 10 mM MgCl2) 15 min at 25 °C; glutathione agarose 1 h at 4 °C; SDS-PAGE, InstantBlue, densitometry corrected for binding to GST; aerobic (Yah1 cluster oxidised); both purified
[4] = biological target: T1, Yah1-GST fusion protein (S. cerevisiae); assay: condition: only aerobic conditions (Yah1 cluster oxidised); Isu1Sc 10 μM; BLI; Yah1^GST immobilised on anti-GST biosensors; analytes NIA (10 μM) alone, Isu1 (10 μM) alone or both; buffer BLI (40 mM HEPES–KOH pH 7.5, 5% glycerol, 100 mM KCl, 1 mM DTT, 10 mM MgCl2, 0.05% Triton X-100); room temperature; aerobic (Yah1 cluster oxidised); fits with the 2:1 heterogenous ligand model; both purified
[5] = biological target: T1, Yah1-GST fusion protein (S. cerevisiae); assay: BLI; anaerobic chamber; Yah1^GST (WT or DD/KK) chemically reduced with 5 mM sodium dithionite (30 min, then desalted) and immobilised on anti-GST sensors; analytes NIA (10 μM), NIA with Isu1Sc (10 μM each) or Isu1Sc (10 μM); buffer BLI; both purified

Row | Binder | binding [1] | binding [2] | binding [3] | binding [4] | binding [5]
1 | B1 | binds |  |  |  | 
2 | B2 |  | binds | no binding | no binding | binds
